# Measured values as given in PubChem BioAssay (EPA / NIEHS).
# By UniProt entry, the sequences of proteins in these tests, tags left out. Where a name states a change or a piece, a line headed by the entry shows the natural chain unless it says otherwise.
# UniProt P21709: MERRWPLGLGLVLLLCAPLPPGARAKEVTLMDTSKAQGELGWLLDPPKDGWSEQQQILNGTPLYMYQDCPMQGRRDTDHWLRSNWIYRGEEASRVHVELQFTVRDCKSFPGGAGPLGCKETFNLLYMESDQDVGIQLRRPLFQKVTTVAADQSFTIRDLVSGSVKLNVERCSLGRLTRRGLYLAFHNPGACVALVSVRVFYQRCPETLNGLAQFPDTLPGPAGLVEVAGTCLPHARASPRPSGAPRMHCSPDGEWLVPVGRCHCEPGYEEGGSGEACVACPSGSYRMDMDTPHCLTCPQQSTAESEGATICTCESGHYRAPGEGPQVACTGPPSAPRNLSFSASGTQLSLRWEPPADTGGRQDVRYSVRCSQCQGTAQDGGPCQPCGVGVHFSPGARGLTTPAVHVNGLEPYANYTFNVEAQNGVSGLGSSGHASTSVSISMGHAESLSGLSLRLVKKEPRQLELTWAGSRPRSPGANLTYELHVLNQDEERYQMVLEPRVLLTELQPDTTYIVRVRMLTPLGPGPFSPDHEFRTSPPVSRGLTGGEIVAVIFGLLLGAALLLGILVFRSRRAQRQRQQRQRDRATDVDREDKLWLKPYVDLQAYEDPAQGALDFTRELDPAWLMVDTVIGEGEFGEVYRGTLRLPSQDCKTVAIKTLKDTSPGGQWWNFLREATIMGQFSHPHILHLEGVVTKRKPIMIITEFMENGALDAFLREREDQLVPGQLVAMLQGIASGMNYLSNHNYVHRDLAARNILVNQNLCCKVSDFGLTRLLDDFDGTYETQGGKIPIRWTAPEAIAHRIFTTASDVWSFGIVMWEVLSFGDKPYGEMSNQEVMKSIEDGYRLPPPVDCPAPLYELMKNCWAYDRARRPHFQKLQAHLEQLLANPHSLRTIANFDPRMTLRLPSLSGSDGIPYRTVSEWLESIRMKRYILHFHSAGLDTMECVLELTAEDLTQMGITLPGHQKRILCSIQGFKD
# UniProt P17948, whole entry, looked up: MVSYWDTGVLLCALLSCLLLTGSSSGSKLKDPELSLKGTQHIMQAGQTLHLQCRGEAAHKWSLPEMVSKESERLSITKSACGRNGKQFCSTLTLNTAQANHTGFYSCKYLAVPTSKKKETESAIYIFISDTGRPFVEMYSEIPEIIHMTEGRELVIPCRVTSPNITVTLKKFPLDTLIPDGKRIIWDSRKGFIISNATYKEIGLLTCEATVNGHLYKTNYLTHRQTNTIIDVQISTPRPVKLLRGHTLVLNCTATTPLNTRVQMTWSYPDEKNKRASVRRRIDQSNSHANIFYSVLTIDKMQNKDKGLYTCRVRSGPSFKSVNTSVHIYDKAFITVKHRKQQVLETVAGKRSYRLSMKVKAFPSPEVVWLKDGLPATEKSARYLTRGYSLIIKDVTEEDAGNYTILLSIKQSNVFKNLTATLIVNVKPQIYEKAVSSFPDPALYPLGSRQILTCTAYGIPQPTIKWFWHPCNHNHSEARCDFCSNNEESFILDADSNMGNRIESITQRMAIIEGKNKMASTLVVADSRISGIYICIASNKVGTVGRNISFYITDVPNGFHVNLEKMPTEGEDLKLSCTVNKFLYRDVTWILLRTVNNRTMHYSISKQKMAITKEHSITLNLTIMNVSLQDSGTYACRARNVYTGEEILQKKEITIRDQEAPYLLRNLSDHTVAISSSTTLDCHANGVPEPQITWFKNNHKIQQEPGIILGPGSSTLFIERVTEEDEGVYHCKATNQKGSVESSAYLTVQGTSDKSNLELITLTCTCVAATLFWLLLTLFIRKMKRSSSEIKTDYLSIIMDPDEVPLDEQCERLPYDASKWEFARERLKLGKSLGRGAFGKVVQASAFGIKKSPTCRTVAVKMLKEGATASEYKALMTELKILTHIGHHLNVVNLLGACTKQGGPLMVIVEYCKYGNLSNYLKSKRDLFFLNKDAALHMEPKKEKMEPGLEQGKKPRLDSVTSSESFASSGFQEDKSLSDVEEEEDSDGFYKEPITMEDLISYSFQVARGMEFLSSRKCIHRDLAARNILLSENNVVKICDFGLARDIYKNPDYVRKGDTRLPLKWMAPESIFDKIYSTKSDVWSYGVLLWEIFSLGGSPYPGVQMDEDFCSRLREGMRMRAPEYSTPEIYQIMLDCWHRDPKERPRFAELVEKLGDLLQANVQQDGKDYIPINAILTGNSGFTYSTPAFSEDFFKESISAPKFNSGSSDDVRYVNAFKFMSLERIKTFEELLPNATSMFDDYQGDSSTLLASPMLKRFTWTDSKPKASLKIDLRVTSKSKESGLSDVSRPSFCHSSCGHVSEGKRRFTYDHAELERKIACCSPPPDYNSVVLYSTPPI
# UniProt P49884, whole entry, looked up: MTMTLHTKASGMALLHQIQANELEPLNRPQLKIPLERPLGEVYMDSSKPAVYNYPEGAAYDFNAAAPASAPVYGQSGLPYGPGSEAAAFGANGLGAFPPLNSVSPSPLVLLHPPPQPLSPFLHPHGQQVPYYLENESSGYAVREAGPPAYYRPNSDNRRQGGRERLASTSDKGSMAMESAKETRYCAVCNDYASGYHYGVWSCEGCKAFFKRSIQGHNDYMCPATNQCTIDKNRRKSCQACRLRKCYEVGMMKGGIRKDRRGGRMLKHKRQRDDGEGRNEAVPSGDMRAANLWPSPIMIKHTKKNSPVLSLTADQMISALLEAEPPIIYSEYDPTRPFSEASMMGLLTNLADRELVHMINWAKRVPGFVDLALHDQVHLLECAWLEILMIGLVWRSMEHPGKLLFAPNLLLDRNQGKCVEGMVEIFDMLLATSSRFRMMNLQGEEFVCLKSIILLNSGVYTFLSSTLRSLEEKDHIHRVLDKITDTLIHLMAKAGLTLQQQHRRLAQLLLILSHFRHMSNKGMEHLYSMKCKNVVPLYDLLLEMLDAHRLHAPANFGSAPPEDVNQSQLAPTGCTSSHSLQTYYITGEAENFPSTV
# UniProt P19785, whole entry, looked up: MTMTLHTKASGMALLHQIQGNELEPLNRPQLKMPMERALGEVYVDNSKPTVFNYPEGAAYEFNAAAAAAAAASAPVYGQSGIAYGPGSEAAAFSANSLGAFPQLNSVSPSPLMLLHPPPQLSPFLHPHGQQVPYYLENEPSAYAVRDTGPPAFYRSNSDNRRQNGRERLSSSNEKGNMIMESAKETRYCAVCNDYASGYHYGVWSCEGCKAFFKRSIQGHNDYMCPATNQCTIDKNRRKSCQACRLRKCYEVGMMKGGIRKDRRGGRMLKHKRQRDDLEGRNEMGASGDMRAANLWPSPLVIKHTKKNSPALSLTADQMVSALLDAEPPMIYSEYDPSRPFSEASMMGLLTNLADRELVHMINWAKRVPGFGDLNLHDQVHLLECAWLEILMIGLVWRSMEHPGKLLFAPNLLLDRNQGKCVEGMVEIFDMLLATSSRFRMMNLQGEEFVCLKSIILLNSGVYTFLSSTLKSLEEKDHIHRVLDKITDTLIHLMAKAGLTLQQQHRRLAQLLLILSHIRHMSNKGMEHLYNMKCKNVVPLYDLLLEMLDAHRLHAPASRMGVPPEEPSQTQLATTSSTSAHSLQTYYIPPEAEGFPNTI
# UniProt Q96RI1: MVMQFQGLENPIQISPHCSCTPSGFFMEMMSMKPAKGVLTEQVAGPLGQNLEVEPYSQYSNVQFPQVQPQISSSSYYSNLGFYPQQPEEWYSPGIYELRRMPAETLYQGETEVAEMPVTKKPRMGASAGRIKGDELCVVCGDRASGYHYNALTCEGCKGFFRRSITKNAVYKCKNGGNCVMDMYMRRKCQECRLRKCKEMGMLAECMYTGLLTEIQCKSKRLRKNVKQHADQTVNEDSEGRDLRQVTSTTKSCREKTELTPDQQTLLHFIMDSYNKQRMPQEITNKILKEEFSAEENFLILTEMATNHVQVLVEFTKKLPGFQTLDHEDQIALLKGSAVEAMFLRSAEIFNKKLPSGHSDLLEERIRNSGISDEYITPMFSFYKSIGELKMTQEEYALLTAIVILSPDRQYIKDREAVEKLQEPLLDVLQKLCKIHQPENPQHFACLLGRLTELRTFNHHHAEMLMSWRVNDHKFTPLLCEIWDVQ
# UniProt P10275: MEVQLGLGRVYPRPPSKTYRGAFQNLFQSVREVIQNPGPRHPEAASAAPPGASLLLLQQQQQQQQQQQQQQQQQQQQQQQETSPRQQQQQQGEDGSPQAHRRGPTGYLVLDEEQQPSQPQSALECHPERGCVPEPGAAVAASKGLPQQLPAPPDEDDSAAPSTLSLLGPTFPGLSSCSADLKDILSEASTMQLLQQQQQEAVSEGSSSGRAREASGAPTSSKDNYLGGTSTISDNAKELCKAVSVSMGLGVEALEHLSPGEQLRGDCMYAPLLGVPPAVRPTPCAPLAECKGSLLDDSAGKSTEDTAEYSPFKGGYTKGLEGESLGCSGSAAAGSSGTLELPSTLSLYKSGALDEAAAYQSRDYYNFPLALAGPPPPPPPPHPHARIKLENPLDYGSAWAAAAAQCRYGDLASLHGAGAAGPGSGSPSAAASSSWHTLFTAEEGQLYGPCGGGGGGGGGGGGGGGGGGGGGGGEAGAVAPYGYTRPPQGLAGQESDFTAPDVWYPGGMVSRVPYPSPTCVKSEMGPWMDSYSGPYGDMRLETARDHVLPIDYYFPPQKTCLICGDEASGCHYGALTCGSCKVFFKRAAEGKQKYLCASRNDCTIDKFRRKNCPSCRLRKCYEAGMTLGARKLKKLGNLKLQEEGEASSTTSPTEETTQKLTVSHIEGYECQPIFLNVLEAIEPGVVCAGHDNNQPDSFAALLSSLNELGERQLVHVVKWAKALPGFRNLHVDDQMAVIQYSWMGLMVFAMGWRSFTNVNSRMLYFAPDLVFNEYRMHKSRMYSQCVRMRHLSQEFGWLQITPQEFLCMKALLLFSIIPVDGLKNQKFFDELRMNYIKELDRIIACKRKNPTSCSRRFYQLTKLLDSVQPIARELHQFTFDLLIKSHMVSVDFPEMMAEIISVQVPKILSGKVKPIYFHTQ
# UniProt Q07869: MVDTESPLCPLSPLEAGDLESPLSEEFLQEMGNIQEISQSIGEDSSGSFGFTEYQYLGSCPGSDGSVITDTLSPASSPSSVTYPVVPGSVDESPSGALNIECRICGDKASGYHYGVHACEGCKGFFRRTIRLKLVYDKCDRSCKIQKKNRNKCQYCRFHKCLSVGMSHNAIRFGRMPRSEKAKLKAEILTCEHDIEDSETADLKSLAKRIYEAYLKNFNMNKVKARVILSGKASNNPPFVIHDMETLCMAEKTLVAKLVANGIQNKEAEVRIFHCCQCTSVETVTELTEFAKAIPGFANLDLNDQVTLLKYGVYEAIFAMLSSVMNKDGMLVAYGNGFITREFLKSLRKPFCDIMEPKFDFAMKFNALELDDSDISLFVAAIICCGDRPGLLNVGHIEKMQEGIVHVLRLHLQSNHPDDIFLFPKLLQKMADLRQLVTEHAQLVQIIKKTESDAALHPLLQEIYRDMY
# UniProt P03372, whole entry, looked up: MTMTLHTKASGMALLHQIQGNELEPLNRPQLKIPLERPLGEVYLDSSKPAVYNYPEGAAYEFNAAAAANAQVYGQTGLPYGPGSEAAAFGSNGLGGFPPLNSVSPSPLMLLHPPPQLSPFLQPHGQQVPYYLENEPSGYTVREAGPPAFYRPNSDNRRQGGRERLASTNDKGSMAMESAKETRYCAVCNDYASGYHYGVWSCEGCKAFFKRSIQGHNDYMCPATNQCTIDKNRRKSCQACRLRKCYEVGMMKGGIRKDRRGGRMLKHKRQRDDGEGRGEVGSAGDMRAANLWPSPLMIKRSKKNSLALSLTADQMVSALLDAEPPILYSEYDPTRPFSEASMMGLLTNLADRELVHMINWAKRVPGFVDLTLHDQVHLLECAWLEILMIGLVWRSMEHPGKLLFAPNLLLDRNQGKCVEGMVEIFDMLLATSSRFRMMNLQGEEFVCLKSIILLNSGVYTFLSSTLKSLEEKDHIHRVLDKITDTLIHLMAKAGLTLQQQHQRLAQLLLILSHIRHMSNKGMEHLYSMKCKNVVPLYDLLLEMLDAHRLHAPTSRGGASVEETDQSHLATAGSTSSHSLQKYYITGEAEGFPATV
# UniProt P37231: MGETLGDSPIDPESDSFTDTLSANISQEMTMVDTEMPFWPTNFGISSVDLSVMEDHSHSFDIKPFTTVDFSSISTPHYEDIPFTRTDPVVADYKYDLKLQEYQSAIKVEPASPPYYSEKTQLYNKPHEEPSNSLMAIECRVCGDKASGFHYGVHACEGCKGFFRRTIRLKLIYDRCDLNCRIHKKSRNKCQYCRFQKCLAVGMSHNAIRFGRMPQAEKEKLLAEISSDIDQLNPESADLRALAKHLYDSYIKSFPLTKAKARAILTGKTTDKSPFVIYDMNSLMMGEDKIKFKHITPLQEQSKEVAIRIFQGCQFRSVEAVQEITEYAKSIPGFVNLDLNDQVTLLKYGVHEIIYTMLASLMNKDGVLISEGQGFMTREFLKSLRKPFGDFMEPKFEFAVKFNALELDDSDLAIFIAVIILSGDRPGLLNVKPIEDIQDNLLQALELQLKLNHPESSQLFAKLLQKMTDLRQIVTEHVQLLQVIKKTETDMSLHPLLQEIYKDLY
# Where “and” joins values, the source holds several entries; their conditions need not be identical. Equal entries are not always repeated. This list was built around the results that the source calls inconclusive (neither active nor inactive); the mix of calls is not that of the screen. Where the call is inconclusive, the potency comes from a doubtful curve fit. Calls of active or inactive are those of the source. Rule for the calls: active = hit-call score of the fitted dose curve at least 0.9, where 1 is the maximum; inconclusive = response in the unintended direction; inactive = score below 0.9.
# Tests used:
# [1] = target: human Ephrin type-A Receptor 1 (EphA1), EPHA1 (gene 2041) (UniProt P21709); experiment: NVS_ENZ_hEphA1: NovaScreen (NVS) Enzymatic Assay for human Ephrin type-A Receptor 1 (EphA1) (AID 2283158);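 note: activity is signal loss versus DMSO meaning EphA1 kinase inhibition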
# Procedure, shortened: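 Fluorescent substrate conversion, resolved by mobility-shift separation, measured 1 hour post-dosing using recombinant enzyme; signal loss relative to DMSO baseline. Single-concentration duplicates at 25 uM preceded singleton concentration series topping at 50 uM.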
# [2] = target: human Vascular Endothelial Growth Factor Receptor 1 (VEGFR1), FLT1 (gene 2321) (UniProt P17948); experiment: NVS_ENZ_hVEGFR1: NovaScreen (NVS) Enzymatic Assay for human Vascular Endothelial Growth Factor Receptor 1 (VEGFR1) (AID 2283226)
# Procedure, shortened: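 Cell-free assay of recombinant human VEGFR1 kinase with substrate, measured 1 h after dosing; fluorescence with electrophoretic mobility-shift separation of substrate and product, referenced to DMSO; primary screen at 25 uM in duplicate, actives then run in concentration series.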
# [3] = CCTE_Shafer_MEA_acute_AB: CCTE's Alamar Blue Assay for Cytotoxicity in the Neural Acute Assay, Shafer Lab (AID 2284069);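 note: active compounds lower the viability signal compared with DMSO wells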
# Procedure, shortened: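 Read-out: resazurin fluorescence (ex 544, em 590 nm) after CTB reagent at 1:6 dilution in fresh media. Cells: primary rat cortical neuron networks, DIV 13 or 15, chemically exposed on MEA plates; DMSO as negative control/baseline.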
# [4] = Tanguay_ZF_120hpf_OTIC_legacy: (Legacy) Oregon State University Tanguay Lab 120 Hour Post-fertilization zebrafish Assay for Otic Vesicle Malformation (AID 2283639)
# Procedure, shortened: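 Tropical 5D wild-type zebrafish embryos statically exposed in 0.64% DMSO at 28C until 120 hpf; 5uM trimethyltin chloride as positive control. Otic vesicle malformation scored present/absent by brightfield; dead embryos not scored; gain fitted versus DMSO.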
# [5] = target: bovine Estrogen Receptor (ER), ESR1 (gene 407238) (UniProt P49884); experiment: NVS_NR_bER: NovaScreen (NVS) Nuclear Receptor Binding Assay for bovine Estrogen Receptor (ER) (AID 2283345);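 note: actives lower the bound radioligand count which means they displace the ER ligand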
# Procedure, shortened: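 Cell-free radioligand binding with receptor from bovine uterine membranes, read by scintillation counting 18 h after dosing. Loss of specific binding was scored against DMSO; primary screen at 25 uM in duplicate, actives then run as concentration series.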
# [6] = target: mouse Estrogen Receptor alpha (Era), Esr1 (gene 13982) (UniProt P19785); experiment: NVS_NR_mERa: NovaScreen (NVS) Nuclear Receptor Binding Assay for mouse Estrogen Receptor alpha (Era) (AID 2283378);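 note: hit means loss of bound radioligand signal relative to DMSO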
# Procedure, shortened: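 Filter radiodetection of radioligand displacement from extracted receptor protein, measured 18 h post-dose. Single 25 uM concentration in duplicate initially, with concentration-series follow-up. Binding loss fitted relative to DMSO.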
# [7] = target: Bile acid receptor (Homo sapiens) (UniProt Q96RI1); experiment: OT_FXR_FXRSRC1_0480: Odyssey Thera (OT) 8-hour HEK293T Protein-Complementation Assay for Farnesoid X receptor/SRC-1 Co-activator (AID 2283383)
# Procedure, shortened: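 HEK293T protein-fragment complementation assay: FXR and SRC-1 coactivator are fused to reporter fragments, and their interaction restores a fluorescent reporter. Readout was taken 8 h after dosing, with gain of signal fit relative to DMSO.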
# [8] = ACEA_AR_antagonist_AUC_viability: ACEA Biosciences xCELLigence Real-Time Cell Analysis on Androgen Receptor Antagonism for Viability (AID 2283776);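 note: 22Rv1 human prostate cancer cells growing on impedance electrode plates; hits lower the growth signal relative to DMSO meaning cytotoxicity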
# Procedure, shortened: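 Real-time electrical impedance tracks 22Rv1 proliferation after continuous compound exposure (top 100 uM final, 1:4 steps, 8 concentrations). The 80 h area-under-curve serves as the cytotoxicity readout relative to DMSO.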
# [9] = target: AR (gene 367) (UniProt P10275); experiment: ACEA_AR_agonist_80hr: ACEA Biosciences xCELLigence Real-Time Cell Analysis on Androgen Receptor Agonism for Proliferation (AID 2283783);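 note: hits increase impedance growth signal above DMSO baseline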
# Procedure, shortened: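 Androgen-driven proliferation in 22Rv1 cells is tracked as electrical impedance, taken 80 h after continuous exposure to compound (eight concentrations, 1:4 steps, maximum 100 uM final). Activity is fitted in the positive direction with DMSO as baseline.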
# [10] = CCTE_Deisenroth_AIME_384WELL_CTox_Active: Cytotoxicity Assessment (CTOX) in CCTE's 384-well Estrogen Receptor Transactivation Assay with AIME metabolic competence (metabolism positive), Deisenroth Lab (AID 2284037);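 note: chemicals first conditioned 2 h by alginate-bound induced rat liver S9 before cells; activity means signal loss indicating cell death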
# Procedure, shortened: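 Cytotoxicity in VM7Luc4E2 breast cells, 24 hour, measured as protease-substrate fluorescence loss, after 2-hour metabolic conditioning with induced rat hepatic S9 in alginate microspheres. Concentrations 0.002 - 200 uM, 10 points, bidirectional fitting.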
# [11] = Tanguay_ZF_120hpf_BRAI_legacy: (Legacy) Oregon State University Tanguay Lab 120 Hour Post-fertilization zebrafish Assay for Brain Malformation (AID 2283641)
# Procedure, shortened: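 Binary brightfield scoring of brain malformation at 120 hpf in Tropical 5D larvae held under static exposure at 28C (0.64% v/v DMSO), non-mortality endpoints skipped if dead. Positive control: 5uM trimethyltin chloride; fit versus DMSO.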
# [12] = Tanguay_ZF_120hpf_NC_legacy: (Legacy) Oregon State University Tanguay Lab 120 Hour Post-fertilization zebrafish Assay for Notochord and Tail Malformation (AID 2283656)
# Procedure, shortened: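 Dechorionated Tropical 5D wild-type zebrafish embryos, one per well from 6 hpf, statically exposed to 120 hpf at 28C in 0.64% DMSO final. Notochord distortion scored present/absent by brightfield; dead embryos excluded.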
# [13] = target: human Peroxisome Proliferator-activated Receptor alpha (PPARa), PPARA (gene 5465) (UniProt Q07869); experiment: NVS_NR_hPPARa: NovaScreen (NVS) Nuclear Receptor Binding Assay for human Peroxisome Proliferator-activated Receptor alpha (PPARa) (AID 2283359);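 note: activity means loss of TR-FRET signal versus DMSO baseline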
# Procedure, shortened: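 Chemicals were first screened in duplicate at 25 uM, and active ones were retested across concentration series. Binding was monitored by TR-FRET one hour after dosing, with decreased signal against DMSO counted as activity.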
# [14] = target: Bile acid receptor (Homo sapiens) (UniProt Q96RI1); experiment: OT_FXR_FXRSRC1_1440: Odyssey Thera (OT) 24-hour HEK293T Protein-Complementation Assay for Farnesoid X receptor/SRC-1 Co-activator (AID 2283384)
# Procedure, shortened: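 HEK293T cells, 24 h after chemical dosing. FXR–SRC-1 coactivator interaction read as fluorescence from protein-fragment complementation of a split reporter. Gain of signal fitted against DMSO baseline.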
# [15] = ACEA_AR_agonist_AUC_viability: ACEA Biosciences xCELLigence Real-Time Cell Analysis on Androgen Receptor Agonism for Viability (AID 2283775);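 for AC50: viability read 80 hours after compound addition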
# Procedure, shortened: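 Real-time impedance tracking of 22Rv1 growth, readings every 5 min for 5 h then hourly; area-under-curve viability endpoint at 80 hours, relative to DMSO. Compounds at eight concentrations, 1:4 steps, top 100 uM, n = 2.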
# [16] = target: Estrogen receptor (Homo sapiens) (UniProt P03372); experiment: NVS_NR_hER: NovaScreen (NVS) Nuclear Receptor Binding Assay for human Estrogen Receptor (ER) (AID 2283348)
# Procedure, shortened: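 Scintillation signal from bound radioligand was measured 18 hours after chemical addition to cell-free MCF7 protein extracts, with DMSO as baseline. Activity was scored as signal loss; compounds ran first at 25 uM in duplicate.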
# [17] = Tanguay_ZF_120hpf_PE_legacy: (Legacy) Oregon State University Tanguay Lab 120 Hour Post-fertilization zebrafish Assay for Pericardial Edema (AID 2283640);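 note: potency for increased incidence of pericardial edema versus DMSO baseline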
# Procedure, shortened: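 Scoring was binary, by brightfield microscopy at 120 hpf, and skipped where mortality occurred. Wild-type embryos were kept under sealed, foil-covered static exposure at 28C in 0.64% (vol/vol) DMSO.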
# [18] = Tanguay_ZF_120hpf_PFIN_legacy: (Legacy) Oregon State University Tanguay Lab 120 Hour Post-fertilization zebrafish Assay for Pectoral Fin Malformation (AID 2283648);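 note: each larva judged yes or no for fin defect by brightfield with dead larvae skipped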
# Procedure, shortened: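 5D WT zebrafish; pronase dechorionation 4 hpf; 1 embryo/well at 6 hpf; static exposure to 120 hpf, 28C, sealed, foil-covered; final DMSO 0.64% v/v; 5 uM trimethyltin chloride positive control; fin defect scored yes/no.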
# [19] = target: Peroxisome proliferator-activated receptor gamma (Homo sapiens) (UniProt P37231); experiment: NVS_NR_hPPARg: NovaScreen (NVS) Nuclear Receptor Binding Assay for human Peroxisome Proliferator-activated Receptor gamma (PPARg) (AID 2283370)
# Procedure, shortened: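 Fluorescence polarization readout of ligand binding to extracted human PPARg, measured at 2 h. Duplicate single-point screen at 25 uM, then concentration-series retesting; activity defined as signal loss versus DMSO.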
structure (smiles),measurement,setting,value
CCC1CO1 (stereo unspecified),AC50,[1],inconclusive: 6.17 µM
same,AC50,[2],inconclusive: 25 µM
CN(C)C(=N)N=C(N)N,AC50,[3],inconclusive: 18.1 µM
CCN(C(=O)c1cc(C)cc(OC[C@H](C)Nc2ccncc2)c1)C(C)C,outcome,[4],inactive
N#Cc1ccc(C(c2ccc(C#N)cc2)n2cncn2)cc1,AC50,[5],inconclusive: 3.52 µM
same,AC50,[6],inconclusive: 17.8 µM
same,outcome,[7],inactive
same,AC50,[8],inconclusive: 11.8 µM
same,AC50,[9],inconclusive: 11.8 µM
same,outcome,[10],inactive
CCCCCCCCCCCCCCCS(=O)(=O)Oc1ccccc1,AC50,[11],inconclusive: 101 µM
same,AC50,[12],inconclusive: 97.6 µM
same,AC50,[10],inconclusive: 9.81 µM
CC(C)(O)c1coc(S(=O)(=O)NC(=O)Nc2c3c(cc4c2CCC4)CCC3)c1,AC50,[13],inconclusive: 0.56 µM
same,AC50,[14],inconclusive: 50 µM
same,AC50,[12],inconclusive: 46.1 µM
same,outcome,[8],inactive
C=CCc1ccc(OC)c(OC)c1,AC50,[2],inconclusive: 4.96 µM
same,AC50,[13],inconclusive: 0.105 µM
same,outcome,[14],inactive
same,AC50,[15],inconclusive: 0.396 µM
same,AC50,[8],inconclusive: 0.00434 µM
Nc1ccc2c(c1)C(=O)c1ccccc1C2=O,AC50,[5],inconclusive: 25 µM
same,outcome,[16],inactive
same,AC50,[6],inconclusive: 21.2 µM
same,outcome,[4],inactive
same,AC50,[17],inconclusive: 6.21 µM
same,outcome,[18],inactive
same,AC50,[3],inconclusive: 20 µM
C=C(C)C(=O)OCCC[Si](OC)(OC)OC,AC50,[1],active: 25 µM
same,AC50,[2],inconclusive: 0.174 µM
CC(O)COCC(C)O (stereo unspecified),AC50,[1],inconclusive: 25 µM
CCCCSCCCC,outcome,[1],inactive
O=P(O)(O)O,AC50,[7],inconclusive: 13.3 µM
same,AC50,[14],inconclusive: 50 µM
c1ccc(Oc2ccccc2)cc1,AC50,[14],inconclusive: 10.5 µM
same,AC50,[8],inconclusive: 0.763 µM
CCNCCO,AC50,[7],inconclusive: 50 µM
same,AC50,[8],inconclusive: 4.43 µM
CC1=C(O)C(=O)C(C)O1 (stereo unspecified),AC50,[2],inconclusive: 25.5 µM
CCCCCCC(C)(C)S,outcome,[19],inactive
same,AC50,[7],inconclusive: 30.5 µM
same,AC50,[14],inconclusive: 30.5 µM
same,AC50,[8],inconclusive: 0.179 µM
NC(=O)NC1NC(=O)NC1=O (stereo unspecified),AC50,[10],inconclusive: 0.00101 µM
O=C1NC2NC(=O)NC2N1 (stereo unspecified),outcome,[15],inactive
CC(=O)S[C@H](C(=O)N[C@H]1Cc2ccccc2[C@H]2CCC[C@@H](C(=O)O)N2C1=O)C(C)C,AC50,[14],inconclusive: 50 µM
same,AC50,[12],inconclusive: 35.1 µM
CCC(=O)OCc1ccccc1,AC50,[3],inconclusive: 0.003 µM
COc1ccccc1OCC(O)CO (stereo unspecified),outcome,[1],inactive
Oc1ccccc1O,outcome,[13],inactive
same,AC50,[4],inconclusive: 101 µM
same,AC50,[11],inconclusive: 74.9 µM
same,outcome,[12],inactive
same,AC50,[10],active: 100 µM
OCCc1ccccc1,AC50,[7],inconclusive: 50 µM
CN1CCCC1=O,outcome,[11],inactive
same,AC50,[3],inconclusive: 20 µM
CCCCOCCOCCO,AC50,[10],inconclusive: 100 µM
same,AC50,[3],inconclusive: 20 µM
CCCCC(CC)COC(=O)c1ccc(O)cc1 (stereo unspecified),outcome,[13],inactive
same,AC50,[7],inconclusive: 91.2 µM
same,AC50,[14],inconclusive: 85.1 µM
same,outcome,[15],inactive
CCC1(C)NC(=O)NC1=O (stereo unspecified),AC50,[14],inconclusive: 8.49 µM
same,AC50,[10],inconclusive: 0.0002 µM
CO[Si](CCCNCCN)(OC)OC,AC50,[15],inconclusive: 25.5 µM
CC(O)CC(C)(C)O (stereo unspecified),AC50,[19],inconclusive: 1.17 µM and inconclusive: 26.1 µM
same,AC50,[15],inconclusive: 0.564 µM
CC/C=C\CCOC(C)OCC (stereo unspecified),outcome,[6],inactive
CC(C)COC(=O)CCCCC(=O)OCC(C)C,outcome,[13],inactive
same,AC50,[19],inconclusive: 14.3 nM
same,AC50,[17],inconclusive: 1.49 µM
same,AC50,[18],inconclusive: 68.9 µM
CCCCCCC(C=O)=Cc1ccccc1,AC50,[13],inconclusive: 25 µM
same,AC50,[19],inconclusive: 142 nM
same,AC50,[7],active: 50 µM
same,outcome,[18],inactive
same,AC50,[10],inconclusive: 0.0002 µM
CC1=NN(c2cc(Cl)c(S(=O)(=O)O)cc2Cl)C(=O)C1N=Nc1ccc(S(=O)(=O)O)cc1 (stereo unspecified),outcome,[13],inactive
CC(C)CCO,AC50,[5],inconclusive: 12.2 µM
same,AC50,[19],inconclusive: 4960 nM
same,outcome,[4],inactive
same,AC50,[10],inconclusive: 100 µM
NCCCCCCN,AC50,[15],inconclusive: 16.6 µM
CN(C)CCC(c1ccc(Cl)cc1)c1ccccn1 (stereo unspecified),AC50,[2],inconclusive: 36.6 µM
CCCCCCCCCC,outcome,[5],inactive
same,AC50,[16],inconclusive: 0.575 µM
same,AC50,[13],inconclusive: 25 µM
same,AC50,[18],inconclusive: 26.9 µM
COCCOCCOCCOC,AC50,[4],inconclusive: 148 µM

# Two entries picked at random from those above:
structure (smiles),measurement,setting,value
CC(C)(O)c1coc(S(=O)(=O)NC(=O)Nc2c3c(cc4c2CCC4)CCC3)c1,AC50,[14],inconclusive: 50 µM
CC1=NN(c2cc(Cl)c(S(=O)(=O)O)cc2Cl)C(=O)C1N=Nc1ccc(S(=O)(=O)O)cc1 (stereo unspecified),outcome,[13],inactive
